Test results: article PMC4346627
Positions count from the first letter of the chain named. For at least one entry, the source does not settle the construct or the ends of the probe. Tags and fusion partners may be left off the protein sequences shown.

What was measured:
[1] = biological target: T1, Roquin M199R 1-484 (san) (UniProt Q4VGL6); experiment: SPR; conditions: equilibrium 1:1 fit, immobilized RNA; SPR (Biacore T100, SA chip): 10 mM Tris-HCl pH 7.4, 150 mM NaCl, 1 mM TCEP, 0.05% surfactant P-20, 20 C, 50 ul/min; recombinant protein; residues 1-484; protein details: GST removed with PreScission; label: 5'-biotin
T1 sequence (looked up): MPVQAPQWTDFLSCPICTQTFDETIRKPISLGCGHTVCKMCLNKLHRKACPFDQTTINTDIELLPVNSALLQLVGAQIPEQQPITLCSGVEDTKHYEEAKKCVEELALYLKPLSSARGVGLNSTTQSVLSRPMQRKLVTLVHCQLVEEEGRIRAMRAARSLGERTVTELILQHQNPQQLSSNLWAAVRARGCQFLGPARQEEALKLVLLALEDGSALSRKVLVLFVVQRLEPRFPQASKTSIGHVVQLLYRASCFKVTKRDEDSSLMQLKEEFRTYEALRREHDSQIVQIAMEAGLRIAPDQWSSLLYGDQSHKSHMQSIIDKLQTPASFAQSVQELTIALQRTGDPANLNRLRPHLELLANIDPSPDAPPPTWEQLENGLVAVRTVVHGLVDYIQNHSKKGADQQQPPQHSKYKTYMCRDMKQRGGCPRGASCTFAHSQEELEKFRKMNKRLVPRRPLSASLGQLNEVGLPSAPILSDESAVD

[2] = biological target: T2, Roquin WT 1-484 (UniProt Q4VGL6); experiment: SPR; conditions: equilibrium 1:1 fit, immobilized RNA; SPR (Biacore T100, SA chip): 10 mM Tris-HCl pH 7.4, 150 mM NaCl, 1 mM TCEP, 0.05% surfactant P-20, 20 C, 50 ul/min; recombinant protein; residues 1-484; protein details: GST removed with PreScission; label: 5'-biotin
T2 sequence (looked up): T1 sequence (looked up) with R199M

## CUGAGAACUGAAUUCCAUGGGUUAUAUCAAUGUCA
[1]
  Kd: 110 nM
[2]
  Kd: 370 nM
